From article PMC11790958, “Molecular mechanism of condensin I activation by KIF4A” (The EMBO Journal, 2024)
For at least one entry, the source does not settle the construct or the ends of the probe. For some assays here: A weaker result is weaker than the reference pair of the same experiment. For some assays here: At least one verdict was read from the data and is not stated in words by the source.

How the values were obtained:
[1] = system: condensin I pentamer (CI, wild type) (Homo sapiens); experiment: EMSA; details: 2.5 mM Mg2+; EMSA: 50 nM DNA, 20 mM HEPES pH 8, 150 mM KCl, 2.5 mM MgCl2, 10% glycerol, 1 mM DTT, on ice 20 min; 2% agarose, 0.5x TB; recombinant protein; protein details: Strep; label: 5' Cy5 on reverse strand (S2)
[2] = system: condensin I tetramer lacking NCAPD2 (CIΔD2) (Homo sapiens); experiment: EMSA; details: 2.5 mM Mg2+, minimal reduction, higher shifted band (may multimerise); EMSA: 50 nM DNA, 20 mM HEPES pH 8, 150 mM KCl, 2.5 mM MgCl2, 10% glycerol, 1 mM DTT, on ice 20 min; 2% agarose, 0.5x TB; recombinant protein; protein details: Strep; label: 5' Cy5 on reverse strand (S2)

GGTGTGACAGGGTGTGACAGGGTGTGACAGGGTGTGACAGGGTGTGACAG (double strand) [Cy5 50 bp dsDNA]
binding result [1]: binds | binding result [2]: binds more weakly
